# US20220168329A1, “COMBINATORIAL DRUG TREATMENT OF CANCER” (University of Virginia Patent Foundation, priority 2019, published 2022)
# Test system: mPanc96 cells
# Experiment: RNA-Seq transcriptional response to Gem
# Assay type: cell-based, Human
# Details: IC30 Gem for 24 hours
# Method: Control sgRNA (CgRNA) and PRMT5-KO cells were treated with gemcitabine (200 nM) or EPZ015666 (500 nM) for 48 hours. Total RNA was purified using an RNeasy mini kit (Qiagen #74104) by following the kit instructions. mRNA was isolated by using NEBNext Poly(A) mRNA Magnetic Isolation Module (New England Biolabs #7490S). RNA-Seq libraries were prepared using the NEBNext Ultra Directional RNA Library Prep Kit for Illumina (New England Biolabs #E7420S) by following the company's protocol. A Qubit measurement and bioanalyzer were used to determine the library quality.
# General sequencing data quality was examined using FastQC (v. 0.11.5). […] The resulting sam files were sorted by reading names and converted to bam files using samtools (v. 1.9) sort command. For ATAC-Seq, sequencing reads mapped to mitochondria DNA were removed from the bam files using the samtools view. […] Next, the bam files were quantified against gencode (v27lift37) annotation using Stringtie (v. 1.3.4d) with the default settings.
# After obtaining the gene count matrix from Stringtie, we imported it into R and normalized the data following the pipeline of DESeq2. […] By calling the DESeq function, we determined genes with significant expression changes between the PRMT5 WT and KO samples thresholding at an adjusted P value of 0.01. […]
smiles,measurement,setting,value
"Nc1ccn([C@@H]2O[C@H](CO)[C@@H](O)C2(F)F)c(=O)n1 [Gem, 2′,2′-difluoro 2′-deoxycytidine]",genes significantly altered,mPanc96 KO cells,"1,385 genes"
same,genes significantly altered,mPanc96 WT cells,512 genes
